Measured values published in patent US20240010753A1.
Positions count from the first letter of the chain named. No constants are given. Whether binding was seen depends on the method and setting. Some entries that bind do so weakly or less than the wild type.

Sequences of proteins named here, by UniProt entry; tags and fusion partners are left off. A change or cut given only in a name is not applied to a line headed by its entry.
UniProt P07766: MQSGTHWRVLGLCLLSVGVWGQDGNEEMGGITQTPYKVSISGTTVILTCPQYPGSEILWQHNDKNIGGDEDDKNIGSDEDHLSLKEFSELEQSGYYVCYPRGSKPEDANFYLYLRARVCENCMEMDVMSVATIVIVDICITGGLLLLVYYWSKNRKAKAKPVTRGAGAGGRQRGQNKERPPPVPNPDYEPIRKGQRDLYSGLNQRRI

Assays:
[1] = biological target: human CD3 on cells (human) (UniProt P07766); assay: flow cytometry on CHO-CD3-TCR cells
[2] = biological target: human CD3 on cells (human) (UniProt P07766); assay: flow cytometry on CHO-CD3-TCR cells, MFI
[3] = biological target: human CD3 on cells (human) (UniProt P07766); assay: flow cytometry on human CD3-expressing Jurkat T cells

Measured: binding

B1: HuEM0006-01-24 (antibody, V domains shown)
VH: EVQLVQSGAEVKKPGASVKVSCKASGFSFTNYYVHWMRQAPGQGLEWMGWISPGSDNTKYNEKFKGRVTMTRDTSISTAYMELSRLRSDDTAVYYCARDDYGNYYFDYWGQGTTVTVSS
VL: DIVMTQSPDSLAVSLGERATINCKSSQSLLNARTRKNYLAWYQQKPGQPPKLLIYWASTRESGVPDRFSGSGSGTDFTLTISSLQAEDVAVYYCKQSYILRTFGGGTKVEIK
binds: all assays above

B2: HuEM0006-01-27 (antibody, V domains shown)
VH: B1 VH with M48I, M70L, R72A
VL: B1 VL
binds: all assays above
